# Measurements from PubChem BioAssay AID2685 (National Center for Advancing Translational Sciences (NCATS), 2010).
# The other results are listed elsewhere or left out. The main result of the screen is listed elsewhere. These columns were measured beside it and carry no call. Compounds called inactive in the main read-out are mostly missing here. Words in brackets tell the shape of the fitted curve; partial curves, single points and poor fits give uncertain potencies.
# Assay: qHTS Assay for Lipid Storage Modulators in Drosophila S3 Cells;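 as to cell number change: cells counted by Cell Tracker Red CMTPX staining in the red channel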
# Conditions: BODIPY lipid droplet fluorescence, 18-24 h; for cell number change: measured here: cell count max response, cells fed with added oleic acid
# Method in brief: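 Drosophila S3 cells got compounds at several concentrations plus oleic acid (400 uM solution). Laser-scanning cytometry with 488 nm excitation read lipid droplets at 500-530 nm and cells at 575-640 nm. Percent activity was relative to 20 uM Triacsin C.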
# [1] = measured here: cell number channel AC50, cells fed with added oleic acid
# [2] = measured here: lipid fluorescence (Fed channel) AC50, cells fed with added oleic acid
SMILES,cell number change,AC50 [1],AC50 [2]
CC1(c2ccc([N+](=O)[O-])cc2)NC(=O)N(CC(=O)Nc2ccc(N3CCCCC3)cc2)C1=O (configuration not stated),36.5%,"16.4 µM [rising, single point]",–
COc1ccc(C(=O)/C=C/c2ccc(-c3ccccc3)cc2)cc1CSCC(=O)O,42.7%,"13 µM [rising, partial curve, poor fit]",–
c1ccc(Cn2nc(-c3ccccc3)nc2-c2ccccc2)cc1,34.6%,"4.61 µM [rising, partial curve]","9.2 µM [rising, partial curve]"
CC1CCN(S(=O)(=O)c2ccc(NC(=O)c3ccccc3F)cc2)CC1,-17.5%,"0.13 µM [falling, full curve, poor fit]",–
CCc1ccc2oc(=O)cc(CN3CCN(CCO)CC3)c2c1,-89.1%,"18.4 µM [falling, partial curve]","29.1 µM [falling, single point]"
CCN(CC)C(=O)c1sc2nc(N3CCOCC3)c3c(c2c1N)CCCC3,13.7%,"0.259 µM [rising, full curve, poor fit]","0.164 µM [rising, full curve]"
CC(=O)Nc1cccc(OCC(=O)/C=C2\N(C)c3ccccc3C2(C)C)c1,-14.4%,–,"0.651 µM [falling, single point]"
O=C(COc1ccc2ccccc2c1)NN1C(=O)c2ccccc2C1=O,-36.9%,"1.16 µM [falling, full curve, poor fit]",–
O=C1OC2(CCCCC2)OC(=O)C1=CNc1nccs1,-11.6%,–,"2.31 µM [falling, full curve, poor fit]"
Oc1cccc(/C=N/N2CCCCC2)c1O,52.5%,"29.1 µM [rising, single point]","29.1 µM [rising, single point]"
CCC1(c2ccccc2)NC(=O)N(CC(=O)N(C)CC(=O)Nc2cccc(OC)c2)C1=O (configuration not stated),1.8%,–,"20.6 µM [falling, partial curve, poor fit]"
CCN(CC)C(=O)Oc1ccc2oc(=O)cc(-c3cc4cccc(OC)c4o3)c2c1,-4.89%,–,–
CCCC(=O)NC(=S)Nc1ccc(Cl)cn1,0.277%,–,"16.4 µM [falling, single point]"
CCN(C(=O)CN1CCN(c2ccc(OC)cc2)CC1)c1c(N)n(Cc2ccccc2)c(=O)[nH]c1=O,7.14%,–,"0.00461 µM [falling, full curve, poor fit]"
C=CCc1cccc2cc(C(=O)N(C)C)c(=O)oc12,-30.3%,"0.103 µM [falling, full curve, poor fit]",–
Cc1cccc(C(=O)Nc2oc(-c3ccccc3)cc2C#N)c1,1.23%,–,–
Cc1cc(C)cc(OCC(=O)OCC(=O)Nc2cc(C)nn2-c2ccccc2)c1,-16.2%,"0.103 µM [falling, full curve, poor fit]","0.103 µM [falling, full curve, poor fit]"
O=C(COC(=O)c1ccc(S(=O)(=O)NCc2ccco2)cc1)NCCC1=CCCCC1,-2.44%,–,"4.61 µM [falling, single point]"
CCCc1cc(=O)n2[nH]c(C)cc2n1,6.39%,–,"2.31 µM [rising, single point]"

# As entered above:
# Value for `c1ccc(Cn2nc(-c3ccccc3)nc2-c2ccccc2)cc1` under AC50 [1]: 4.61 µM [rising, partial curve]
# Value for `Oc1cccc(/C=N/N2CCCCC2)c1O` under AC50 [1]: 29.1 µM [rising, single point]
# Value for `CC1(c2ccc([N+](=O)[O-])cc2)NC(=O)N(CC(=O)Nc2ccc(N3CCCCC3)cc2)C1=O` (configuration not stated) under AC50 [1]: 16.4 µM [rising, single point]

# Going on with the list.

SMILES,cell number change,AC50 [1],AC50 [2]
Cc1cc(C)nc(-n2nc(C)cc2Nc2ccccc2)n1,-7.34%,–,–
O=C(CCN1C(=O)c2ccccc2C1=O)Nc1ccncc1,-14.1%,"0.82 µM [falling, full curve, poor fit]","29.1 µM [falling, single point]"
O=C(NNC(=O)c1ccccc1Cl)c1ccncc1,-1.75%,–,"0.92 µM [falling, full curve, poor fit]"
CC(=O)c1c(C)[nH]c(=S)c(C#N)c1-c1ccc(Cl)cc1,-23.6%,–,"23.1 µM [falling, partial curve, poor fit]"
O=C(COC(=O)c1ccc(F)cc1F)Nc1ccc2[nH]c(=O)[nH]c2c1,15.3%,–,–
NS(=O)(=O)c1ccc(NC(=O)COC(=O)C2(c3ccc(F)cc3)CCCC2)cc1,-12%,–,"29.1 µM [falling, single point]"
O=C(c1ccc2c(c1)OCO2)C1CCCN(Cc2ccc(OC(F)F)cc2)C1 (configuration not stated),-31%,"29.1 µM [falling, single point]","29.1 µM [falling, single point]"
Cc1ccc(N(CC(=O)N/N=C/c2ccc(OC3CSC3)cc2)S(=O)(=O)c2ccccc2)c(C)c1,-29.3%,–,"16.4 µM [falling, single point]"
CC/C(=N\NC(=O)c1ccc(N(C)C)cc1)c1ccccc1,30.6%,"5.17 µM [rising, full curve, poor fit]","5.8 µM [rising, full curve, poor fit]"
OCCN1CCN(c2nc(-c3ccccc3)nc3c2oc2ccccc23)CC1,–,–,"0.651 µM [rising, partial curve]"
COc1cccc(/C(C)=N/NC(=O)c2ccc(N(C)C)cc2)c1,-27.8%,–,"5.17 µM [falling, partial curve]"
CSc1nc(C)c(CCOC(=O)c2ccccc2)c(=O)[nH]1,12.4%,–,"0.731 µM [rising, full curve]"
CC(=O)Nc1ccc(S(=O)(=O)Nc2ccc(-c3ccc4nnc(C)n4n3)cc2)cc1,-3.08%,"3.66 µM [falling, single point]",–
CCOc1ccc2nc(-c3ccccc3)[nH]c2c1,-24.9%,–,–
CC(C)OC(=O)c1ccc(Cn2nnc3ccccc3c2=O)cc1,103%,"16.4 µM [rising, partial curve]","0.231 µM [rising, full curve]"
FC(F)(F)c1cccc(N2CCN(c3ccc4nnc(-c5ccccc5)n4n3)CC2)c1,-52.1%,"23.1 µM [falling, partial curve, poor fit]",–
Cc1[nH]c2ccc(C(=O)NCCCN3CCN(C)CC3)cc2c1C,22.2%,–,–
COc1ccc(-n2c(C)cc(/C=N/Nc3nnc(C)n3N)c2C)cc1,-42.7%,"16.4 µM [falling, partial curve]","13 µM [falling, partial curve]"
